# Results: the supplement of paper PMC8728848
# The other results are listed elsewhere or left out.
# Legend:
# Test in all cases: glycan array binding signal (z-score within array); higher = stronger binding
# Conditions in all cases: glycan notation: IUPAC condensed, linker removed
# [1] = target: Fuc(a1-2)[GalNAc(b1-3)]Gal
# Summary of the method: (§1)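 From the Consortium for Functional Glycomics database, 3228 arrays were curated, keeping only those whose protein sequence was available. Binding is given as a within-array Z-score averaged across arrays sharing a protein sequence and across linkers. Negative Z-scores can be read as non-binding.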
# [2] = target: Fuc(a1-3)GlcNAc
# Summary of the method: as §1
# [3] = target: Fuc(a1-3)[Gal(b1-4)]Glc6S
# Summary of the method: as §1
# [4] = target: Fuc(a1-3)[Gal(b1-4)]GlcNAc
# Summary of the method: as §1
# [5] = target: Fuc(a1-3)[Gal(b1-4)]GlcNAc(b1-2)Man
# Summary of the method: as §1
# [6] = target: Fuc(a1-3)[Gal(b1-4)]GlcNAc(b1-2)Man(a1-3)[Fuc(a1-3)[Gal(b1-4)]GlcNAc(b1-2)Man(a1-6)]Man(b1-4)GlcNAc(b1-4)GlcNAc
# Summary of the method: as §1
# [7] = target: Fuc(a1-3)[Gal(b1-4)]GlcNAc(b1-2)Man(a1-3)[Fuc(a1-3)[Gal(b1-4)]GlcNAc(b1-2)Man(a1-6)]Man(b1-4)GlcNAc(b1-4)[Fuc(a1-6)]GlcNAc
# Summary of the method: as §1
# [8] = target: Fuc(a1-3)[Gal(b1-4)]GlcNAc(b1-3)Gal(b1-3)[Fuc(a1-4)]GlcNAc
# Summary of the method: as §1
# [9] = target: Fuc(a1-3)[Gal(b1-4)]GlcNAc(b1-3)Gal(b1-4)[Fuc(a1-3)]GlcNAc
# Summary of the method: as §1
# [10] = target: Fuc(a1-3)[Gal(b1-4)]GlcNAc(b1-3)Gal(b1-4)[Fuc(a1-3)]GlcNAc(b1-3)Gal(b1-4)[Fuc(a1-3)]GlcNAc
# Summary of the method: as §1
# [11] = target: Fuc(a1-3)[Gal(b1-4)]GlcNAc(b1-3)GalNAc
# Summary of the method: as §1
# [12] = target: Fuc(a1-3)[Gal(b1-4)]GlcNAc(b1-6)GalNAc
# Summary of the method: as §1
# [13] = target: Fuc(a1-3)[Gal(b1-4)]GlcNAc(b1-6)[Gal(b1-3)GlcNAc(b1-3)]Gal(b1-4)Glc
# Summary of the method: as §1
# [14] = target: Fuc(a1-3)[Gal(b1-4)]GlcNAc6S
# Summary of the method: as §1
# [15] = target: Fuc(a1-3)[Gal3S(b1-4)]Glc
# Summary of the method: as §1
# [16] = target: Fuc(a1-3)[Gal3S(b1-4)]GlcNAc
# Summary of the method: as §1
# [17] = target: Fuc(a1-3)[Gal3S(b1-4)]GlcNAc6S
# Summary of the method: as §1
# [18] = target: Fuc(a1-3)[GalNAc(b1-4)]GlcNAc
# Summary of the method: as §1
# [19] = target: Fuc(a1-3)[GalNAc(b1-4)]GlcNAc6S
# Summary of the method: as §1
# [20] = target: Fuc(a1-4)GlcNAc
# Summary of the method: as §1
# [21] = target: Fuc(b1-3)GlcNAc
# Summary of the method: as §1
# [22] = target: Gal(a1-2)Gal
# Summary of the method: as §1
# [23] = target: Gal(a1-3)Gal
# Summary of the method: as §1
# [24] = target: Gal(a1-3)Gal(b1-3)GlcNAc
# Summary of the method: as §1
# [25] = target: Gal(a1-3)Gal(b1-3)GlcNAc(b1-2)Man
# Summary of the method: as §1
# [26] = target: Gal(a1-3)Gal(b1-3)GlcNAc(b1-2)Man(a1-3)[Gal(a1-3)Gal(b1-3)GlcNAc(b1-2)Man(a1-6)]Man(b1-4)GlcNAc(b1-4)GlcNAc
# Summary of the method: as §1
# [27] = target: Gal(a1-3)Gal(b1-3)GlcNAc(b1-3)GalNAc
# Summary of the method: as §1
# [28] = target: Gal(a1-3)Gal(b1-3)GlcNAc(b1-6)GalNAc
# Summary of the method: as §1
# [29] = target: Gal(a1-3)Gal(b1-3)[Fuc(a1-4)]GlcNAc(b1-2)Man(a1-3)[Gal(a1-3)Gal(b1-3)[Fuc(a1-4)]GlcNAc(b1-2)Man(a1-6)]Man(b1-4)GlcNAc(b1-4)GlcNAc
# Summary of the method: as §1
# [30] = target: Gal(a1-3)Gal(b1-4)Glc
# Summary of the method: as §1
binder,measurement,setting,value
"BT4246 (Bacteroides thetaiotaomicron), Q89ZX5 (protein) MGSSHHHHHHENLYFQGHMASDYLDVVPPEQPNIDDAMSSPTRALGFLYSCYGGVSTDLPSAYLGEINSTTDEYVLPYSWNTDGYWGAYAFNTASSTNQDWLWGTTYQYIGQCYLFLQKLENAGSDIASDAEKEQWRAECQFLVAYYHFATLRRYGPIPITDSYIPMDTPTSEYNGRFHFDYCVDWIANQLDEAAKVLPANRTVTNEWGRATSTIAKAVKARLLLYAASPLWNGSFPYPNWQNENFETPGYGKALVSNTYDKSKWERALAACQEALTLATTSGDRELYDDDEYYSRQSLNLPFVPGVADVEDNKEFLKNVMKMRYAVSTRESEGNKEIIWGLSNQFDFYSRYPLRILKKSDGTWHAGYSGVSPTLYTFEHFYTANGKLPEKDLDFTPSSEWFESAGISSREDIIKLNVGREPRFYAWMAFDGGDYGTKFAAGSPLKLEMRNSEMHGYNPSLFNRDHSVTGFLTQKFVDPVTEFYTAGGSTSGTSAPTILFRLAELYLNVAECHAALGNTQEAIDALNPVRERAGIPKLTLADITNNMTIKDWVHNERFVELWNEGHRFFDVRRWAEGAKYFGANKREGLNAEVQSPTFEEFNKRTTVDAPYVWENRMYLNPVFYNEVYKNPQMVQAPGY",glycan array binding signal (z-score),[1],-0.491
same,glycan array binding signal (z-score),[2],-1.71
same,glycan array binding signal (z-score),[3],1.48
same,glycan array binding signal (z-score),[4],1.44
same,glycan array binding signal (z-score),[5],0.571
same,glycan array binding signal (z-score),[6],-0.536
same,glycan array binding signal (z-score),[7],-0.062
same,glycan array binding signal (z-score),[8],-1.5
same,glycan array binding signal (z-score),[9],0.61
same,glycan array binding signal (z-score),[10],-0.484
same,glycan array binding signal (z-score),[11],-0.422
same,glycan array binding signal (z-score),[12],-0.061
same,glycan array binding signal (z-score),[13],-0.254
same,glycan array binding signal (z-score),[14],-1.45
same,glycan array binding signal (z-score),[15],1.27
same,glycan array binding signal (z-score),[16],-0.584
same,glycan array binding signal (z-score),[17],-0.7
same,glycan array binding signal (z-score),[18],1.29
same,glycan array binding signal (z-score),[19],-0.444
same,glycan array binding signal (z-score),[20],-0.637
same,glycan array binding signal (z-score),[21],-0.792
same,glycan array binding signal (z-score),[22],-0.225
same,glycan array binding signal (z-score),[23],-1.17
same,glycan array binding signal (z-score),[24],1.69
same,glycan array binding signal (z-score),[25],-0.436
same,glycan array binding signal (z-score),[26],1.06
same,glycan array binding signal (z-score),[27],-0.409
same,glycan array binding signal (z-score),[28],1.53
same,glycan array binding signal (z-score),[29],0.85
same,glycan array binding signal (z-score),[30],0.389

# Reprinted from the listing for reference:
binder,measurement,setting,value
"BT4246 (Bacteroides thetaiotaomicron), Q89ZX5 (protein) MGSSHHHHHHENLYFQGHMASDYLDVVPPEQPNIDDAMSSPTRALGFLYSCYGGVSTDLPSAYLGEINSTTDEYVLPYSWNTDGYWGAYAFNTASSTNQDWLWGTTYQYIGQCYLFLQKLENAGSDIASDAEKEQWRAECQFLVAYYHFATLRRYGPIPITDSYIPMDTPTSEYNGRFHFDYCVDWIANQLDEAAKVLPANRTVTNEWGRATSTIAKAVKARLLLYAASPLWNGSFPYPNWQNENFETPGYGKALVSNTYDKSKWERALAACQEALTLATTSGDRELYDDDEYYSRQSLNLPFVPGVADVEDNKEFLKNVMKMRYAVSTRESEGNKEIIWGLSNQFDFYSRYPLRILKKSDGTWHAGYSGVSPTLYTFEHFYTANGKLPEKDLDFTPSSEWFESAGISSREDIIKLNVGREPRFYAWMAFDGGDYGTKFAAGSPLKLEMRNSEMHGYNPSLFNRDHSVTGFLTQKFVDPVTEFYTAGGSTSGTSAPTILFRLAELYLNVAECHAALGNTQEAIDALNPVRERAGIPKLTLADITNNMTIKDWVHNERFVELWNEGHRFFDVRRWAEGAKYFGANKREGLNAEVQSPTFEEFNKRTTVDAPYVWENRMYLNPVFYNEVYKNPQMVQAPGY",glycan array binding signal (z-score),[5],0.571
same,glycan array binding signal (z-score),[6],-0.536
